Test results reported in PubChem BioAssay AID504444 (National Center for Advancing Translational Sciences (NCATS), 2011).
Out of some 360,000 compounds screened, about 7,500 (2.1%) were called active. This list was built around the results that the source calls inconclusive (neither active nor inactive); the mix of calls is not that of the screen. The call rests on the fitted dose curve; in most records, active means well fitted inhibition curve with a large enough effect; inconclusive means small, poorly fitted or top-dose-only effect, or effect the other way; inactive means flat fitted curve, though single readings scatter. A potency beside an inconclusive call is a rough fit, not a confirmed value.
On the % scale 0 is the no-effect control and ±100 the full control effect; potency means the concentration at half of the fitted maximal effect.

Assay: Nrf2 qHTS screen for inhibitors; further: nearly all actives have a fitted effect of over 60% in size
Conditions: A549 ARE-Fluc reporter, luciferase luminescence, 18-24 h; activity change, negative = inhibition: at 46 µM (top of the series)
Outline: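 Cells were seeded and rested 2 h, then exposed to compounds for 18-24 h. CellTiter-Fluor was read first as a viability measure. BugLite was added 15 min before the final luminescent read of ARE-luciferase activity in A549 cells.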
In the case of `Cc1cccc(C)c1NS(=O)(=O)c1ccc2c(c1)NC(=O)CO2`, the Potency is reported as inconclusive: 20.6 µM [falling, single point]. For `CC(C)(C)c1ccc(OCC(=O)N(Cc2ccco2)Cc2ccccc2F)cc1`, the Potency was inconclusive: 9.2 µM [falling, partial curve]. In the case of `NC1=NC(=O)/C(=C/c2cc(Br)c(O)c(Br)c2)S1`, the Potency is reported as inconclusive: 8.2 µM [falling, partial curve, poor fit]. For `O=S(=O)(Nc1cccc2ccccc12)c1cccc2ccccc12`, the Potency was active: 18.4 µM. With `COc1ccc(-n2nnnc2SCC(=O)NC(=O)Nc2ccc3c(c2)OCCO3)cc1` the Potency was inconclusive: 29.1 µM [activator, single point]. With `Cc1cccn2c(=O)c(/C=C(\C#N)C(N)=O)c(N3CCN(c4cccc(Cl)c4)CC3)nc12` the Potency was inconclusive: 20.6 µM [falling, single point]. For `COc1cc(OC)cc(-c2nnc(SCC(=O)N3CCC(C)CC3)o2)c1`, the “activity change, negative = inhibition” value was inactive: -26.6%. For `COc1ccccc1N1CCN(C(=O)c2cccc(S(=O)(=O)N3c4ccccc4CC3C)c2)CC1` (centres undefined), the Potency was inconclusive: 29.1 µM [falling, single point]. For `COc1ccc(CC2(CO)CCN(C/C=C/c3ccccc3OC)CC2)cc1`, the Potency was inconclusive: 29.1 µM [activator, single point]. In the case of `NC(=O)c1c(N)sc2c1CCC2`, the “activity change, negative = inhibition” value is reported as inactive: -8.87%. In the case of `Cc1ccc(CSc2nc3c(c(N(C)C)n2)CCCC3)cc1`, the Potency is reported as inconclusive: 29.1 µM [falling, single point]. For `Cn1c(SCC(=O)Nc2ccc(F)cc2)nc2c([nH]c3ccccc32)c1=O`, the Potency was inconclusive: 25.9 µM [falling, partial curve, poor fit]. In the case of `COC(=O)C(Cc1ccc(O)cc1)NC(=O)C(C)NC(=O)c1ccc(C(C)(C)C)cc1` (centres undefined), the “activity change, negative = inhibition” value is reported as inactive: 3.79%. For `NC(=O)c1sc2nnc(-c3ccccc3)c(-c3ccccc3)c2c1N`, the Potency was inconclusive: 6.51 µM [falling, partial curve]. For `O=C(/C=C/c1ccccc1[N+](=O)[O-])OCC(=O)c1ccccc1`, the Potency was inconclusive: 23.1 µM [activator, single point]. For `CCOc1ccc2oc(C(=O)Nc3ccc4c(c3)OCO4)c(C)c2c1`, the Potency was inconclusive: 18.4 µM [activator, single point]. For `O=C(NCc1ccccc1)c1ccc(F)c(S(=O)(=O)N2CCOCC2)c1`, the “activity change, negative = inhibition” value was inactive: 11.3%. For `Cc1ccc(C(C)C)c(OCC(=O)Nn2c(=O)[nH]c3ccccc3c2=O)c1`, the Potency was inconclusive: 5.17 µM [falling, partial curve, poor fit]. In the case of `CCN(CC)C(=O)[C@H]1CC(CC(=O)NCC23CC4CC(CC(C4)C2)C3)C(=O)N2CCc3c([nH]c4ccc(OC)cc34)[C@]12C` (some centres undefined), the Potency is reported as active: 23.1 µM. In the case of `CC(C)CN(C(=O)COC(=O)COc1ccc2ccccc2c1)c1c(N)n(Cc2ccccc2)c(=O)[nH]c1=O`, the Potency is reported as inconclusive: 29.1 µM [falling, single point]. For `CN1/C(=C\C=C2/SC(=S)N(CC(=O)O)C2=O)C(C)(C)c2ccccc21`, the Potency was active: 4.11 µM. With `COCCNC(=O)c1cc2cc(Cl)cc(Cl)c2oc1=O` the “activity change, negative = inhibition” value was inactive: 0.815%. With `CCCCOC(=O)Nc1nnc(C(C)C)s1` the Potency was inconclusive: 2.59 µM [activator, full curve]. For `COc1ccc(CCNC(=O)C(=O)NCC2OCCN2S(=O)(=O)c2ccc(C)cc2)cc1` (centres undefined), the Potency was inconclusive: 29.1 µM [falling, single point]. With `O=C(NCCc1ccccc1)c1cc(-c2ccccc2)nc2n[nH]c(-c3ccccc3)c12` the Potency was inconclusive: 11.6 µM [activator, partial curve]. For `CCCNS(=O)(=O)c1ccc(CCC(=O)N2CCCC2)cc1`, the “activity change, negative = inhibition” value was inactive: -0.614%. With `COc1ccc(/C=C/C(=O)N2CCN(S(=O)(=O)c3ccccc3Br)CC2)cc1OC` the Potency was inconclusive: 10.3 µM [falling, partial curve, poor fit]. In the case of `Cc1cc(C)c(NC(=O)CN(C)S(=O)(=O)c2ccc3c(c2)n(C)c(=O)c(=O)n3C)c(C)c1`, the Potency is reported as inconclusive: 29.1 µM [activator, single point]. In the case of `COc1ccccc1-c1cc(C(=O)N2CCOCC2)no1`, the Potency is reported as inconclusive: 5.8 µM [activator, partial curve]. For `CCOC(=O)[C@H]1[C@H]2COc3ccc(Cl)cc3[C@@H]2N2C(=O)c3ccc(F)cc3NC(=O)[C@@]12C`, the Potency was active: 23.1 µM. In the case of `COc1c(Cl)cc(Cl)cc1C(=O)Nc1ccc(NC(=O)c2cccs2)cc1`, the Potency is reported as active: 10.3 µM. In the case of `CC(C)c1ccc(NC(=O)CNC(=O)Cn2ccc3ccccc3c2=O)cc1`, the Potency is reported as inconclusive: 2.31 µM [falling, partial curve, poor fit]. With `COCCNC(=O)c1ccccc1NC(=O)c1ccc(Cl)c(S(=O)(=O)Nc2ccc(C)cc2C)c1` the Potency was inconclusive: 16.4 µM [falling, single point]. In the case of `Cc1ccc(NC(=O)Cn2nnc3ccccc32)cc1`, the Potency is reported as inconclusive: 29.1 µM [activator, single point]. With `O=C(Nc1cc(S(=O)(=O)Nc2ccc(Cl)cc2)ccc1N1CCCCC1)c1ccc(F)cc1Cl` the Potency was inconclusive: 29.1 µM [falling, single point]. With `COC(=O)C(C)N1C(=O)S/C(=C/c2cc(C)n(C(C)C)c2C)C1=O` (centres undefined) the Potency was inconclusive: 32.6 µM [falling, partial curve, poor fit]. In the case of `CC(=O)c1cnc2cc(-c3ccc(C)cc3)nn2c1C`, the Potency is reported as inconclusive: 1.64 µM [activator, full curve]. In the case of `O=C(NCC1CCCCC1)c1cc2ccccc2cc1O`, the Potency is reported as inconclusive: 29.1 µM [falling, partial curve, poor fit]. In the case of `O=[N+]([O-])c1ccccc1N=Nc1ccc(O)cc1O`, the Potency is reported as inconclusive: 32.6 µM [activator, partial curve, poor fit]. For `NC(=S)NN=C1c2cc(OCCN3CCOCC3)ccc2-c2ccc(OCCN3CCOCC3)cc21`, the Potency was active: 16.4 µM. For `Clc1cccc(Cl)c1COn1nnc2ccccc21`, the Potency was inconclusive: 7.31 µM [activator, partial curve]. With `CN(Cc1ccccc1)C(=O)CSc1nc2c(c(C(F)(F)F)n1)CCc1ccccc1-2` the Potency was inconclusive: 0.366 µM [falling, full curve]. For `COc1ccc(NC(=S)N(Cc2ccc(N(C)C)cc2)Cc2ccco2)cc1`, the Potency was inconclusive: 23.1 µM [falling, single point]. In the case of `O=C(c1cc2ccccc2cc1O)N1CCN(c2cccc(Cl)c2)CC1`, the Potency is reported as inconclusive: 2.91 µM [activator, full curve, poor fit]. In the case of `NS(=O)(=O)c1ccc(CCNc2ccnc3cc(Cl)ccc23)cc1`, the Potency is reported as inconclusive: 0.651 µM [falling, partial curve]. With `O=c1[nH]c2ccc(S(=O)(=O)N3CCN(S(=O)(=O)c4c(F)cccc4F)CC3)cc2[nH]c1=O` the “activity change, negative = inhibition” value was inactive: 3.98%. With `Cc1cc(Nc2cccc(Cl)c2)nc2ccc(NC(=O)c3ccc(F)cc3Cl)cc12` the Potency was inconclusive: 29.1 µM [falling, single point]. In the case of `CSc1ccc(CN(C)C(=O)C2CCN(C(=O)Nc3ccccc3)CC2)cc1`, the Potency is reported as inconclusive: 29.1 µM [falling, single point]. With `O=C(NCCc1cnccn1)C1CCC(=O)N(Cc2ccc(Cl)cc2)C1` (centres undefined) the Potency was inconclusive: 16.4 µM [activator, partial curve, poor fit]. In the case of `CCCN(S(=O)(=O)c1ccc(OCC)cc1)S(=O)(=O)c1cccs1`, the Potency is reported as inconclusive: 13 µM [falling, partial curve, poor fit]. For `O=C(c1ccc2c(=O)n3c(nc2c1)CCCCC3)N1CCN(C(c2ccccc2)c2ccccc2)CC1`, the Potency was active: 20.6 µM. With `Cc1ccc(C(C)C)c(OCC(=O)Nc2ccc(N3CCOCC3)cc2N2CCOCC2)c1` the Potency was inconclusive: 25.9 µM [falling, single point]. In the case of `Cc1ccc2nc(/C(C#N)=C/c3ccc(-c4ccc(F)cc4F)o3)[nH]c2c1`, the Potency is reported as inconclusive: 18.4 µM [falling, single point]. In the case of `COc1cc([C@H]2c3[nH]c4ccccc4c3C[C@H]3C(=O)N4[C@@H](c5cc(OC)c(OC)c(OC)c5)c5[nH]c6ccccc6c5C[C@H]4C(=O)N23)cc(OC)c1OC`, the “activity change, negative = inhibition” value is reported as inactive: -16.8%. For `CCOC(=O)N1CCN(C(=O)c2cnn3c(C)c(Cc4ccc(C)cc4)c(C)nc23)CC1`, the Potency was inconclusive: 20.6 µM [falling, single point]. In the case of `Fc1cccc(CN2CCN(c3ncccn3)CC2)c1`, the Potency is reported as inconclusive: 29.1 µM [falling, single point]. In the case of `CC1(C)Oc2ccc(NC(=O)C3COc4ccccc4O3)cc2O1` (centres undefined), the Potency is reported as inconclusive: 0.411 µM [activator, full curve]. With `O=S(=O)(Nc1ccc(Cl)cc1)c1ccc(N2CCOCC2)c(NC(=S)NC2CC2)c1` the Potency was inconclusive: 18.4 µM [falling, partial curve]. With `Cc1ccc(S(=O)(=O)N2CCOCC2)cc1C(=O)NCCc1ccc(Cl)cc1` the “activity change, negative = inhibition” value was inactive: -12.8%. In the case of `CCc1cc(OCCN2C(=O)NC(C)(C)C2=O)ccc1Cl`, the Potency is reported as inconclusive: 8.2 µM [falling, partial curve, poor fit]. With `O=C(COc1ccc(F)cc1)c1ccc2c(c1)CCCC2` the Potency was inconclusive: 11.6 µM [activator, partial curve]. With `Cc1ccsc1C1Nc2ccccc2-c2nc3ccccc3n21` (centres undefined) the “activity change, negative = inhibition” value was inactive: 10.9%. In the case of `CC(C)Nc1ncnc2ccc(Br)cc12`, the Potency is reported as active: 10.3 µM. In the case of `Cc1ccc(C)c(C(=O)Nc2nc3ccccc3[nH]2)c1`, the Potency is reported as inconclusive: 7.31 µM [activator, partial curve, poor fit].
